Values of other authors as cited in patent publication US8461141B2, “Preventive or therapeutic drug for Alzheimer-type dementia” (Mochida Pharmaceutical Co., Ltd., priority 2005, dated 2013).
For at least one compound, name, drawing or mass did not settle the structure.

Test system: patients suffering from Alzheimer-type dementia
Details: EPA daily dose of 900 mg for 12 months; 22 evaluated cases; afterwards cognitive skill declined; cited from earlier work

Structure (SMILES): CC/C=C\C/C=C\C/C=C\C/C=C\C/C=C\CCCC(=O)O [EPA, Icosapentaenoic acid]
- Effect on cognitive skill, in words: improvement of the cognitive skill for 3 to 6 months
